Measured data: PubChem BioAssay AID1508597 (Cure First, 2020)

Screen: 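Survival screen with siRNA in ovarian cancer cells derived from patients, with or without rucaparib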 (primary screen)
System: human ovarian carcinoma lines grown from tumours: OCI-P5x (papillary serous) and OCI-C5x (clear cell)
Knock-down reagent: siRNA pool against human genes, 1.25 pmol siRNA per well
Duration: 72 h or 96 h, depending on the cell culture
Conditions: rucaparib 20 µM (about IC30) or vehicle, present until read-out
Rucaparib or vehicle: Vehicle
Cell line: OCI-C5x (clear cell)
Measurement: 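Luminescent ATP-based viability assay read 72 or 96 h after transfection, depending on culture, given as normalised percent viability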
Scale: viability, normalised: higher = more viable cells remaining
Rule for the call: 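a well counts as a hit if its normalised viability is under 80 percent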
Calls: active = viability under 80%; inactive = viability 80% or more
This is a random part of the about 2,100 reagents, in one setting of the screen. 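Calls flag viability under 80% in either arm, not effects specific to rucaparib; the reference for percent is not stated.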 Unmarked entries are inactive. A reagent listed more than once was tested more than once; the source does not tell the runs apart. Reagent sequences are not shown. Not given: the 100% reference.

| gene knocked down | technical replicate | viability, normalised (%) |
| --- | --- | --- |
| PRKRA (GeneID 8575) | 1 | 35 (active) |
| PRKRA (GeneID 8575) | 2 | 47.6 (active) |
| PRKRA (GeneID 8575) | 3 | 50.2 (active) |
| CLDN3 (GeneID 1365) | 1 | 46.1 (active) |
| CLDN3 (GeneID 1365) | 2 | 48.6 (active) |
| CLDN3 (GeneID 1365) | 3 | 53.5 (active) |
| NPM2 (GeneID 10361) | 1 | 66.8 (active) |
| NPM2 (GeneID 10361) | 2 | 61.4 (active) |
| NPM2 (GeneID 10361) | 3 | 61.7 (active) |
| TRIB2 (GeneID 28951) | 1 | 74.8 (active) |
| TRIB2 (GeneID 28951) | 2 | 66.3 (active) |
| TRIB2 (GeneID 28951) | 3 | 51.5 (active) |
| IL23A (GeneID 51561) | 1 | 47.8 (active) |
| IL23A (GeneID 51561) | 2 | 54.7 (active) |
| IL23A (GeneID 51561) | 3 | 56.8 (active) |
| DDX25 (GeneID 29118) | 1 | 43.4 (active) |
| DDX25 (GeneID 29118) | 2 | 40.3 (active) |
| DDX25 (GeneID 29118) | 3 | 40.1 (active) |
| NEK2 (GeneID 4751) | 1 | 70 (active) |
| NEK2 (GeneID 4751) | 1 | 116 |
| NEK2 (GeneID 4751) | 2 | 70.2 (active) |
| NEK2 (GeneID 4751) | 2 | 67.7 (active) |
| NEK2 (GeneID 4751) | 3 | 68.3 (active) |
| NEK2 (GeneID 4751) | 3 | 66.3 (active) |

No new results follow: 4 of the entries above.
| gene knocked down | technical replicate | viability, normalised (%) |
| --- | --- | --- |
| CLDN3 (GeneID 1365) | 2 | 48.6 (active) |
| CLDN3 (GeneID 1365) | 3 | 53.5 (active) |
| NPM2 (GeneID 10361) | 1 | 66.8 (active) |
| NPM2 (GeneID 10361) | 2 | 61.4 (active) |
